Data as given in PubChem BioAssay AID1487 (National Center for Advancing Translational Sciences (NCATS), 2009).
The other results are listed elsewhere or left out. The main result of the screen is listed elsewhere. These columns were measured beside it and carry no call. The list favours compounds with an active or inconclusive main result. Potencies come from curve fits of mixed quality, noted in brackets.

Assay: qHTS Assay for Modulators of Lamin A Splicing
Conditions: HeLa LMNA splicing GFP/RFP minigene ratio, 48 h
Procedure, shortened: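 S3 HeLa stable clones carrying a lamin A-EGFP splicing minigene plus DsRed2 were seeded at 600 cells/well in Opti-MEM with 2% FBS, pin-dosed and incubated 48 h at 37°C. Acumen cytometry (488 nm) gave the GFP/RFP total-intensity ratio.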

[1] = measured here: GFP splicing reporter channel
[2] = measured here: RFP viability control channel

Compound | AC50 [1] | AC50 [2]
COc1cc(C2NCC(c3ccc(Cl)cc3Cl)c3c2[nH]c2ccccc32)cc(OC)c1OC (stereo not given) | 12.6 µM [rising, partial curve] | 22.4 µM [rising, partial curve]
CC(N)c1ccc(Cl)cc1Cl (stereo not given) |  | 0.0501 µM [rising, full curve, poor fit]
CCOC(=O)N1CCc2c(sc3nc(SC(C)C)n(N)c(=O)c23)C1 |  | 35.5 µM [rising, single point]
COc1ccc(-n2c(C)cc(C(=O)CSc3nnc(-c4cccs4)o3)c2C)cc1 | 0.794 µM [rising, full curve] | 2.51 µM [rising, full curve]
COc1ccc(OC)c(NC(=O)CC2SC(=NCc3ccccc3)NC2=O)c1 (stereo not given) |  | 0.316 µM [rising, full curve, poor fit]
O=C(Cn1ccc(=O)[nH]c1=O)NCCO | 0.0112 µM [falling, full curve, poor fit] | 0.0141 µM [falling, full curve, poor fit]
COc1ccc(C(=O)NCC(c2ccc(N(C)C)cc2)N2CCc3ccccc32)cc1 (stereo not given) |  | 35.5 µM [falling, single point]
CCOC(=O)c1ccc(N2C(=O)c3n[nH]c(-c4ccco4)c3C2c2ccc([N+](=O)[O-])cc2)cc1 (stereo not given) |  | 35.5 µM [rising, single point]
Cc1ccnc(NS(=O)(=O)c2ccc(NC(=O)c3cc(-c4ccc(Br)cc4)nc4ccccc34)cc2)n1 |  | 1 µM [rising, partial curve]
CS/C(=N\S(=O)(=O)c1cccs1)Nc1ccc(F)c(Cl)c1 |  | 31.6 µM [rising, single point]
COc1ccccc1-c1ccc(/C=C2/C=C(CC(C)C)OC2=O)o1 | 31.6 µM [rising, single point] | 22.4 µM [rising, single point]
Cc1ccc2sc(NNC(=O)c3ccc4c(c3)OCCO4)nc2c1C |  | 31.6 µM [rising, single point]
CCC(Oc1ccccc1)C(=O)Nc1ccc(OCc2cc(=O)n3ccccc3n2)cc1 (stereo not given) |  | 17.8 µM [rising, partial curve, poor fit]
Cc1cccc(NC(=O)c2ccc(COc3cccc4ccccc34)o2)n1 | 8.91 µM [rising, partial curve, poor fit] | 14.1 µM [rising, partial curve]
Cc1ccc(CN2CCN(C3CCN(C(=O)Nc4ccccc4C(F)(F)F)CC3)C(=O)C2=O)cc1 |  | 35.5 µM [rising, single point]

Individual results from the list:
`COc1ccc(C(=O)NCC(c2ccc(N(C)C)cc2)N2CCc3ccccc32)cc1` (stereo not given) | AC50 [2]: 35.5 µM [falling, single point]
`Cc1ccc(CN2CCN(C3CCN(C(=O)Nc4ccccc4C(F)(F)F)CC3)C(=O)C2=O)cc1` | AC50 [2]: 35.5 µM [rising, single point]
